Measurements taken from PubChem BioAssay AID624297 (National Center for Advancing Translational Sciences (NCATS), 2012).
The whole screen tested about 340,000 compounds, of which about 6,200 (1.8%) were called active. This list was built around the results that the source calls inconclusive (neither active nor inactive); the mix of calls is not that of the screen. Calls come from the whole dose curve; as a rule, active = well fitted activation curve with a large enough effect; inconclusive = small, poorly fitted or top-dose-only effect; inactive = no such curve, though single readings can be large or run the other way. Potencies of inconclusive entries are doubtful fits and often do not repeat.

Assay: A quantitative high throughput screen for small molecules that induce DNA re-replication in SW480 colon adenocarcinoma cells. For re-replication activation: % of control where 0% means no effect. Note: nearly all actives have a fitted effect of over 55% in size.
Details: Hoechst DNA content imaging, 48 h; re-replication activation: at 46.1 µM (top of the series) unless noted
In short: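 Per well, 250 cells were exposed to pinned compound for 48 hr. Nuclear DNA was visualised with Hoechst (40 min, 37 C) and total object intensity recorded by fluorescence scanning.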
Potency is the fitted concentration of half-maximal effect.

Q: For `CN(C)S(=O)(=O)c1cccc2c1C(=O)c1ccccc1C2=O`, which Potency is on record?
A: The Potency was active: 20.6 µM.

Q: With `CCOC(=O)C1=C(C)N(C[C@@H]2CC[C@@H](Cc3ccc(-c4ccccc4)cc3)O2)C(=O)NC1c1cccc2ccccc12` (stereo partly drawn) as the compound, how does the Potency read?
A: The Potency was inconclusive: 25.9 µM [activator, partial curve, poor fit].

Q: With `CCn1c(SCc2ccc(C(=O)Nc3nccs3)cc2)nnc1-c1ccc(N)cc1` as the compound, how does the Potency read?
A: Its Potency is “inactive”.

Q: Which Potency does the source give for `COC(=O)c1ccc(CSc2ccc3nnc(-c4cccc(F)c4)n3n2)o1` here?
A: The Potency was inconclusive: 5.17 µM [activator, full curve, poor fit].

Q: Which Potency does the source give for `CC(=O)N1CCN(S(=O)(=O)c2cccc(C(=O)OCC(=O)N(CCC#N)c3ccc(F)cc3)c2)CC1` here?
A: The Potency was “inactive”.

Q: For `COc1ccccc1Nc1ncc(C(=O)N2CCN(Cc3ccc(OC)c(OC)c3OC)CC2)c2ccccc12`, which Potency is on record?
A: Its Potency is inconclusive: 29.1 µM [activator, single point].

Q: For `O=C(NCC(c1ccco1)N1CCc2ccccc21)C(=O)Nc1ccc(F)cc1F` (stereo not drawn), which Potency is on record?
A: The Potency was inconclusive: 23.1 µM [activator, single point].

Q: For `COc1ccc(CCNC(=O)[C@H](C)N2C(=O)N3CCc4c([nH]c5ccccc45)[C@@]3(C)C2=O)cc1OC`, which Potency is on record?
A: Its Potency is “inactive”.

Q: Which Potency does the source give for `C/C(=N\OCC(=O)NC12CC3CC(CC(C3)C1)C2)c1cc2ccccc2o1` here?
A: Its Potency is inconclusive: 23.1 µM [activator, single point].

Q: Which Potency does the source give for `Cc1ccc(NC(=O)C(c2ccccc2)N2CCN(CC(=O)N3CCOCC3)CC2)cc1` (stereo not drawn) here?
A: Its Potency is inconclusive: 2.91 µM [activator, partial curve, poor fit].

Q: For `Oc1c(Cl)cc(Cl)c2c1NCCC2`, which Potency is on record?
A: Its Potency is inconclusive: 25.9 µM [activator, single point].

Q: For `COc1ccc(S(=O)(=O)N(C)C[C@H]2Oc3ccc(NS(=O)(=O)c4cccs4)cc3C(=O)N([C@H](C)CO)C[C@@H]2C)cc1`, which Potency is on record?
A: The Potency was inconclusive: 29.1 µM [activator, single point].

Q: For `COc1cc(C(=O)OCCCN2CCCN(CCCOC(=O)c3cc(OC)c(OC)c(OC)c3)CC2)cc(OC)c1OC`, which Potency is on record?
A: Its Potency is inconclusive: 28.2 µM [activator, single point].

Q: With `COc1cc(/C=C/c2ccc(/C=C/c3cc(OC)c(OC)c(OC)c3)cc2)cc(OC)c1OC` as the compound, how does the Potency read?
A: Its Potency is inconclusive: 0.366 µM [activator, full curve, poor fit].

Q: For `CCCN1C2CCCC1CC(NC(=S)Nc1cc(C)cc(C)c1)C2` (stereo not drawn), which Potency is on record?
A: The Potency was “inactive”.

Q: With `O=C(CSc1n[nH]c(-c2ccccn2)n1)Nc1ccccc1` as the compound, how does the Potency read?
A: Its Potency is inconclusive: 18.4 µM [activator, single point].

Q: Which Potency does the source give for `COCCNC(=O)C1CCN(Cc2cccc(OCc3ccccc3)c2)CC1` here?
A: The Potency was inconclusive: 0.411 µM [activator, full curve, poor fit].

Q: For `COc1cccc(C(CNC(=O)C2CCN(C(=O)Nc3ccccc3)CC2)N(C)C)c1` (stereo not drawn), which Potency is on record?
A: The Potency was “inactive”.

Q: For `COc1ccc(S(=O)(=O)N2CCSC2c2ccc(N)cc2)cc1` (stereo not drawn), which Potency is on record?
A: Its Potency is “inactive”.

Q: Which re-replication activation does the source give for `O=C(Cc1ccsc1)Nc1cc(F)ccc1F` here?
A: The re-replication activation was inconclusive: -22.9% [activator].

Q: With `Cc1cc(Nc2cccc(C(=O)O)c2)n2ncnc2n1` as the compound, how does the Potency read?
A: Its Potency is inconclusive: 16.4 µM [activator, single point].

Q: With `Cn1c(-c2ccccc2)cnc1SCC(=O)N1CCCc2ccccc21` as the compound, how does the Potency read?
A: Its Potency is “inactive”.

Q: With `CN(C)CCNC(C(=O)Nc1cccc(C(F)(F)F)c1)c1ccccc1` (stereo not drawn) as the compound, how does the Potency read?
A: The Potency was inconclusive: 0.146 µM [activator, full curve, poor fit].

Q: Which Potency does the source give for `O=C(/C=C/c1cccs1)N1CCOCC1` here?
A: Its Potency is “inactive”.

Q: Which Potency does the source give for `CCOC(=O)COc1cccc2c(=O)n(CC(=O)NCc3ccccc3)ccc12` here?
A: The Potency was inconclusive: 1.84 µM [activator, full curve, poor fit].

Q: For `COc1cc(/C=N/NC(=O)CCC(=O)NC2CCCCC2)ccc1C`, which Potency is on record?
A: Its Potency is “inactive”.

Q: Which Potency does the source give for `CC(=O)c1c(C)[nH]c(C(=O)NNC(=O)COc2cc(C)ccc2C(C)C)c1C` here?
A: The Potency was inconclusive: 7.31 µM [activator, single point].

Q: Which Potency does the source give for `CC(=O)Nc1cccc(NC(=O)c2ccc3c(c2)CCN3S(=O)(=O)c2ccccc2)c1` here?
A: The Potency was inconclusive: 0.231 µM [activator, full curve, poor fit].

Q: With `O=C1N/C(=C/c2cccn2-c2ccc(F)cc2)C(=O)N1Cc1ccccc1` as the compound, how does the Potency read?
A: The Potency was “inactive”.

Q: Which Potency does the source give for `CN(CC(=O)Nc1ccccc1C(F)(F)F)C(=O)C1CCN(C(=O)c2ccc(Cl)cc2)CC1` here?
A: The Potency was “inactive”.

Q: With `CC(OC(=O)c1ccc(OCC2CCCO2)cc1)C(=O)N(C)Cc1ccccc1` (stereo not drawn) as the compound, how does the Potency read?
A: The Potency was inconclusive: 18.4 µM [activator, single point].

Q: For `COC(=O)c1sc(NC(=O)c2ccc([N+](=O)[O-])o2)c(C#N)c1C`, which Potency is on record?
A: Its Potency is active: 3.26 µM.

Q: With `COC(C/C=C\[C@@H](O)COCc1ccccc1)OC` as the compound, how does the Potency read?
A: Its Potency is inconclusive: 0.116 µM [activator, full curve, poor fit].

Q: With `COC(=O)CCc1c(COC(C)=O)[nH]c(C(=O)OCc2ccccc2)c1C` as the compound, how does the Potency read?
A: Its Potency is inconclusive: 16.4 µM [activator, partial curve, poor fit].

Q: With `CCCN(CCC)CC(O)COc1ccc([N+](=O)[O-])cc1` (stereo not drawn) as the compound, how does the re-replication activation read?
A: The re-replication activation was inactive: -4.92% [at 9.22 µM].

Q: Which Potency does the source give for `Cn1cccc1/C=C1\CCC/C(=C\c2cccn2C)C1=O` here?
A: The Potency was inconclusive: 29.1 µM [activator, single point].

Q: For `CCN1C(=O)/C(=C\C=C2/C=CC=CN2CC)SC1=S`, which Potency is on record?
A: The Potency was inconclusive: 0.326 µM [activator, partial curve, poor fit].

Q: Which Potency does the source give for `O=C1CSc2ccc(C(=O)NCCc3ccc(Cl)cc3Cl)cc2N1` here?
A: Its Potency is “inactive”.

Q: Which Potency does the source give for `c1ccc(N=P(c2nc3ccccc3o2)(N2CCOCC2)N2CCOCC2)cc1` here?
A: Its Potency is inconclusive: 20.6 µM [activator, partial curve, poor fit].

Q: With `O=C(CCC(=O)N1CCN(S(=O)(=O)c2ccc(Cl)cc2)CC1)Nc1cccc(Br)c1` as the compound, how does the Potency read?
A: Its Potency is inconclusive: 16.4 µM [activator, single point].

Q: For `Clc1nc2c(-c3ccccc3)nnn2c2ccccc12`, which Potency is on record?
A: The Potency was inconclusive: 29.1 µM [activator, single point].

Q: Which Potency does the source give for `CC(NS(=O)(=O)c1ccc(OCC(=O)N2CCOCC2)c(Cl)c1)c1ccccc1` (stereo not drawn) here?
A: Its Potency is “inactive”.

Q: For `CCn1c(SCC(=O)Nc2cccc(OC)c2)nc2ccccc2c1=O`, which Potency is on record?
A: Its Potency is “inactive”.
